In series [1] the test system is mice, CFA model of inflammatory pain. Description: CFA model of inflammatory pain, von Frey, i.t. administration. The format is in vivo, mouse. The conditions noted are these: CFA day 2, i.t. 20 μM, 7 μL, listed as myr. On the procedure: Unless otherwise specified, wild type C57BL/6NRj mice (male and female, aged eight-weeks at the beginning of experiment) were used (Janvier, France). Animals were allowed at least seven days of habituation to the animal facility before initiation of experiment. Mice were group-housed in a temperature-controlled room, maintained on a 12/12hour light/dark cycle (lights on at 6 A.M) with free access to standard rodent chow (Altromin 1342 (Brogaarden, […]
Drug administration and dosing for animal experiments.
All compounds were diluted in PBS or saline (depending on control) and administered through different routes i.t. (7 μL/mouse)), i.p. (10 μL/g) or s.c. (10 μL/g)) as indicated. Doses of mPD5 were based on previous studies with TPD5 (6) with a subcutaneous dose-range included in the CFA studies further guiding dose selection for SNI, STZ and CIBP studies. Pregabalin dose was chosen based on previous experience from Phenotype Expertise (Marseilles, France). In the CIBP model, a dose of […] morphine was chosen to avoid hyperactivity, though known to provide only partial pain relief in this model. In remaining experiments, 5 mg/kg morphine was chosen, known to provide full pain relief, except for the conditioned place preference experiment, where 10 mg/kg was used instead in accordance with literature.
C57BL/6 mice were injected s.c. with 10 umol/kg of mPD5 conjugated to Vivotag645 (WuXi, China) or PBS one hour prior to transcardial perfusion with PBS followed by 4% PFA (n=3).
The spinal columns and the brains were dissected and post fixated in 4% PFA overnight at 4 °C. Next, the samples were washed in PBS with 0.02% sodium azide and cleared with a protocol combining elements from PEGASOS (7) and iDISCO (8) which obtained sufficient transparency while still keeping the Vivotag645 fluorophore intact. For the spinal columns, bone was decalcified with 20% EDTA tetrasodium salt (Sigma-Aldrich) in demineralized water for 4 days at 37 °C. Both spinal columns and brains were gently bleached with 25% Quadrol (Sigma-Aldrich) in demineralized water at 37 °C for 3 days followed by 5% ammonium (VWR, Denmark) in demineralized water for one day at 37 °C. Next, the samples were dehydrated in a dilution series of methanol (VWR, Denmark) in demineralized water (20%, 40%, 60%, 80%, 100%, and 100%) with 1.5 hours in each methanol concentration. The samples were delipidated overnight in a solution containing 2/3 dichloromethane (Sigma-Aldrich) and 1/3 methanol. The samples were washed two times in dichloromethane before index matching with ethyl cinnamate (Sigma-Aldrich). The spinal columns were imaged on a 3i Cleared Tissue LightSheet microscope with Slidebook software (3i). The Slidebook software was furthermore used to stitch the images. High resolution light sheet of the dorsal root ganglions (DRGs) and the imaging of the brains were performed with the Zeiss Lightsheet 7 with Zeiss Zen Black software. A custom Python script was used to stitch the imaged brains. After stitching visualization was optimized in Imaris software (Imaris Oxford instruments).
Immunocytochemistry on primary dorsal root ganglion (DRG) neurons
DRG cell cultures were prepared from adult C57BL/6 mice from Janvier. After transcardial perfusion with PBS, approximately 35 DRGs from one mouse were dissected and placed in ice cold Ham’s F12 medium (Gibco). The tissue was incubated in enzyme mix (3 mL of 3 mg/mL dispase II from Sigma Aldrich and 200 µl of 12.5 mg/mL clostridium histolyticum collagenase from Sigma Aldrich) for one hour at 37 °C. The enzyme mix was removed and warm Ham’s F12 medium was added. The cells were mechanically separated with serial trituration using fire-polished glass pipettes until the tissue was dissolved. The cells were passed through a 70 […]
K2 tubes at 5 min, 30 min, 1 hour, 5 hours, 12 hours, 24 hours, and 48 hours and centrifuged (app 4 ℃, 3200 g, 10 min) for collection of plasma. Plasma was transferred to 96 well plates and quick-frozen over dry ice and kept at -60 ℃ until LC-MS/MS analysis. […]

Series [2] deals with naive mice. Kind of series: Barnes maze (spatial learning and memory, reversal learning).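 Further: Nose pokes per hole during a probe trial.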 The format is in vivo, mouse. The conditions noted are these: individual animals. Here is the method:
Spatial learning and memory.
On each day, animals were moved from the housing facility to the experimental room and allowed to acclimatize for at least 60 min before initiation of the experiment. All drugs used (PBS or 10 μmol/kg mPD5) were injected s.c. in a 10 μl/g body weight volume 60 min before first placement on the Barnes’ maze on day 1-9 of the experiment. The experiment was divided into Barnes maze habituation, spatial acquisition (training) and probe trials. During habituation to the Barnes maze itself, animals were placed under a cylinder in the middle of the Barnes maze for 10 seconds and then gently guided to the escape box and left there for two min. During spatial acquisition (training), each mouse was placed under a cylinder in the middle of the Barnes maze for 10 sec followed by up to three min of free exploration of the Barnes maze.
Once the animal entered the escape cage, it was left there for one min before being transferred back to its home cage for 15-20 min. This training was performed four times per day per mouse.
During probe trials the reference memory of the animal was tested by placing each mouse under a cylinder in the middle of the Barnes maze for 10 sec followed by 90 sec of free exploration of the Barnes maze with no escape cage. On days 6-8, the escape hole was moved 90 degrees, and all mice went through the second bout of training. On day nine, a second probe trial was performed testing the reversal learning of the mice. […]
Single exposure place preference. […]

Several values for one entry are separate records, joined by “and”; a condition that tells them apart may be missing. Equal entries are not always repeated. The source gives many values for each of these; only a part stands here.

Consider `CCCCCCCCCCCCCC(=O)N(CCOCCOCCC(=O)N[C@@H](Cc1c[nH]cn1)C(=O)N[C@@H](Cc1c[nH]c2ccccc12)C(=O)N[C@@H](CC(C)C)C(=O)N[C@@H](CCCCN)C(=O)N[C@H](C(=O)O)C(C)C)CCOCCOCCC(=O)N[C@@H](Cc1c[nH]cn1)C(=O)N[C@@H](Cc1c[nH]c2ccccc12)C(=O)N[C@@H](CC(C)C)C(=O)N[C@@H](CCCCN)C(=O)N[C@H](C(=O)O)C(C)C` [mPD5, myristoyl-NPEG4-(HWLKV)2], for which the “paw withdrawal threshold (von Frey), individual mice” value in series [1] (contralateral paw, 1 hr post drug adm.) is 1.4 (5×) and 2; in series [1] (contralateral paw, 5 hrs post drug adm.), 1.4 (2×) and 1 (2×) and 2 (2×); in series [1] (contralateral paw, 24 hrs post drug adm.), 1 (2×) and 2 (3×) and 1.4; in series [1] (ipsilateral paw, 1 hr post drug adm.), 0.6 and 0.16 and 2 (2×) and 0.4 and 1; in series [1] (ipsilateral paw, 5 hrs post drug adm.) it was 0.16 (3×) and 2 and 1 and 1.4; in series [1] (ipsilateral paw, 24 hrs post drug adm.) it was 0.16 (4×) and 0.4 (2×). In addition, the “Barnes maze, count per hole (Fig S8D)” value in series [2] (hole position 5) was 0 (4×) and 2 (2×) and 1 (3×); in series [2] (hole position 6) it was 0 (4×) and 2 and 1 (4×); in series [2] (hole position 7), 0 (4×) and 2 (2×) and 1 (3×); in series [2] (hole position 8) it was 0 (3×) and 1 (6×); in series [2] (hole position 9) it was 0 (3×) and 2 and 1 (5×); in series [2] (hole position -7) it was 1 (3×) and 2. Moreover, the “Barnes maze, count per hole (Fig S8D)” value in series [2] (hole position -8) was 0 (5×) and 1 (3×) and 2; in series [2] (hole position -9), 0 (5×) and 1 (3×) and 3; in series [2] (hole position opposite), 0 (4×) and 1 (5×). For the same compound, the “Barnes maze, count per hole (Fig S8E)” value in series [2] (hole position 5) was 0 (2×) and 3 and 1 (5×) and 2; in series [2] (hole position 6) it was 0 (3×) and 1 (4×) and 2 and 3; in series [2] (hole position 7) it was 1 (2×) and 2 (7×); in series [2] (hole position 8), 1 (5×) and 2 (3×) and 3; in series [2] (hole position 9) it was 1 (3×) and 2 (4×) and 0 and 3; in series [2] (hole position -7) it was 1 (2×) and 2 (3×) and 3. Also, the “Barnes maze, count per hole (Fig S8E)” value in series [2] (hole position -8) was 0 (2×) and 1 (3×) and 2 (3×) and 3; in series [2] (hole position -9), 1 (4×) and 0 and 2 (3×) and 3; in series [2] (hole position opposite), 1 (4×) and 0 and 2 (3×) and 3.

The record behind these values is article PMC11530130, “Peripherally restricted PICK1 inhibitor mPD5 ameliorates pain behaviors in murine inflammatory and neuropathic pain models” (JCI Insight, 2024).
